Data set [1] concerns the target T1, GST-PIF3-Flag (Arabidopsis thaliana) (UniProt O80536).
T1 sequence (looked up, limits assumed): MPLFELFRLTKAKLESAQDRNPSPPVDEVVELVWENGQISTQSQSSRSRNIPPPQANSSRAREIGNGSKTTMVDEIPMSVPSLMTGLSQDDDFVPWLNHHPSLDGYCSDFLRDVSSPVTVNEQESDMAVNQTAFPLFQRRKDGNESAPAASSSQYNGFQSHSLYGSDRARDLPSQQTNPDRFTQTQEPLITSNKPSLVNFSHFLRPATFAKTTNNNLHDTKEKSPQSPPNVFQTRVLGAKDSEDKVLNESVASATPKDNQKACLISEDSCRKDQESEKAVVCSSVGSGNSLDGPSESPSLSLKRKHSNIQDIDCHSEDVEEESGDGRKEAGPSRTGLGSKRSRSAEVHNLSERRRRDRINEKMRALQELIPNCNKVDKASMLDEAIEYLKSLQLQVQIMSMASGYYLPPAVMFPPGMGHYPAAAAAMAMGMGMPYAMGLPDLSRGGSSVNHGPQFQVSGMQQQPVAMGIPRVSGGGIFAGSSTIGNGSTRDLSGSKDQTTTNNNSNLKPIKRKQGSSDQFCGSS
Description: competition with a labelled probe. Particulars: EMSA, EMSA: 100 ng protein, native 5% PAGE in ice-cold 0.5x TBE, binding buffer as cited, recombinant protein, protein details: N-term GST, label: none (competitor). In general terms: In EMSA bound probe runs differently from free probe, usually more slowly.

For data set [2], the system named is GST. Description: EMSA. The settings on record: EMSA: 100 ng protein, native 5% PAGE in ice-cold 0.5x TBE, binding buffer as cited; recombinant protein.

This note sets out measurements from publication PMC3561105, “A Quartet of PIF bHLH Factors Provides a Transcriptionally Centered Signaling Hub That Regulates Seedling Morphogenesis through Differential Expression-Patterning of Shared Target Genes in Arabidopsis”.

The exact form of at least one protein or probe is not confirmed. For some assays here: No signal at the amounts used counts as a negative. For some assays here: Weaker means in comparison with the reference protein, sequence or condition of that experiment. For some assays here: Tags and fusion partners may be left off the protein sequences shown.

With “AGGCCATAGCCATGGGCCTTCATGGGGTGGTTGGCC (double strand) [IBH1 mut]”, the binding result in data set [1] (did not compete like WT) is on record as “binds more weakly”.
For “ACCATTAGCCCACGGGATCTTGGGCC (double strand) [PHYB mut]”, the binding result in data set [1] (did not compete like WT) is on record as “binds more weakly”.
Still for that read-out and setting: to “TGAGGCCGCCCATGGGGACACGACTC (double strand) [IAA2 mut]” belongs “binds more weakly”; to “TCTTTCCGCTCACGGGGGCCTTTTGT (double strand) [PIL1a mut]”, “binds more weakly”; to “ATAGGAGAAGCCCATGCATGCCCATGCTACGAATGG (double strand) [AT4G30410 (bHLH159) mut]”, “binds more weakly”.
Take “GACCCATTAACACGGGGATCCATCACGGGCTGTCAGTTT (double strand) [RGA1 mut1 (both G-boxes)]”: in data set [1] (no efficient competition), the binding result is given as “binds more weakly”.
On the same count and under the same terms, to “ACGCGGCATTCACGGGAAGTGCACGGGAACTTGGCCA (double strand) [PIL1b mut1 (both G-boxes)]” belongs “binds more weakly”.
On to “TCTTTCCGCTCACGTGGGCCTTTTGT (double strand) [PIL1a WT]”, for which, in data set [2], the binding result is given as “no binding”.
